All values are in %.
The controls that fix the scale are not given in the record; negative values are as filed.
Compounds were drawn at random from those tested, without regard to their results.

Protein sequences, listed by entry. Tags and fused reporters are not part of them.
UniProt E9BF75, entry or part of it: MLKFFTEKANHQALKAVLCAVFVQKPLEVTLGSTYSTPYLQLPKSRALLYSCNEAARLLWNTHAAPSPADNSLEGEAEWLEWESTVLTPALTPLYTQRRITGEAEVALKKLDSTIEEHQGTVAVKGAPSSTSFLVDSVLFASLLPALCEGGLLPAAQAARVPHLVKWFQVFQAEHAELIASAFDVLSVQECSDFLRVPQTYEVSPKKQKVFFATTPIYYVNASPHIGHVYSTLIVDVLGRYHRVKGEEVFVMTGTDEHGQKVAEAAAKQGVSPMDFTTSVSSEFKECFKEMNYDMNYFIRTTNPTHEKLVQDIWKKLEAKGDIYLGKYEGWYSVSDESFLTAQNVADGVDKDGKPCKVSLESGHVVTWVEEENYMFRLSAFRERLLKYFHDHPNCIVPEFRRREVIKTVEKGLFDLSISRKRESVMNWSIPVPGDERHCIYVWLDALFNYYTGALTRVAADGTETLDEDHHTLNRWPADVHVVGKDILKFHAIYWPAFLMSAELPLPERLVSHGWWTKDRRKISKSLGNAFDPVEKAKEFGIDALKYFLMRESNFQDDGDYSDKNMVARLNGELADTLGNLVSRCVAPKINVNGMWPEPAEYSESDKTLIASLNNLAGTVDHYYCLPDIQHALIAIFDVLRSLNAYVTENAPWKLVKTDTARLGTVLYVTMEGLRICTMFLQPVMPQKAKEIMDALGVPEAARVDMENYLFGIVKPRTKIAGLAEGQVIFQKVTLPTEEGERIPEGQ

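Methionyl-tRNA synthetase (putative), Leishmania donovani (UniProt E9BF75). Primary screen of methionyl-tRNA synthetase; the read-out is not stated. The test concentration is not given. Values are per cent inhibition. Of about 68,000 compounds tested this way, about 24 (0.035%) reached 50% or more in at least one test.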

SMILES | inhibition
c1cnnc(-c2noc(COCC3CCCO3)n2)c1 (centres undefined) | 6.72
Cc1noc(C)c1-c1nc(NCCN(C)C)ncc1-c1cnccn1 | 8.36
O=C1CCCN1CCc1noc(-c2ccsc2)n1 | 9.639
NC(=O)C1CCN(C(=O)NCc2ccccc2-n2cccn2)CC1 | 23.41
O=C(c1cocn1)N1CCC2(CC1)CC(Oc1ccccn1)CO2 (centres undefined) | 15.79
CC(C)c1nnc2n1CCN(Cc1nc3c(F)cccc3[nH]1)C2 | 14.57
COC(=O)c1cccn1C1CCN(Cc2ccccc2)CC1 | 17.77
CCC1CN(C)c2ccccc2CN1C(=O)c1c[nH]c(=O)cc1C (centres undefined) | 12.77
Cc1ccccc1[C@@H]1CN(CCCS(=O)(=O)N(C)C)C[C@H]1C(=O)O | 14.2
COc1ccc2cc(C3CN(C(=O)CCNC(C)=O)CCO3)ccc2c1 (centres undefined) | 3.133
Cc1cc(C)n(CC2CCCN2C(=O)c2ccc(N(C)C)nn2)n1 (centres undefined) | 23.36
COCC(=O)N1CCC(c2c(C(=O)N(C)C)sc3ncccc23)C1 (centres undefined) | -0.5814
COCCN(Cc1ccc(C)cc1)Cc1nccn1C | 6.634
COCC(C)(O)CNC(=O)c1cc(-c2cc(OC)ccc2OC)nn1C (centres undefined) | 11.02
Cc1ccc(CN2Cc3c(C(=O)N4CCCC4)nn(C)c3C2)s1 | 2.5
CC(c1cc(F)ccc1F)N(C)CCS(=O)(=O)CCC(N)=O (centres undefined) | 8.447
CN1CCN(Cc2nc3c(s2)CCCC3)[C@H]2CS(=O)(=O)C[C@H]21 | 6.72
COc1ccc(F)cc1C(C(=O)O)N1CCSCC1 (centres undefined) | 17.47
CC(C)N1CCC(NC(=O)NC2CCOc3ccc(Br)cc32)CC1 (centres undefined) | 8.791
Cc1cccc(-c2c[nH]c(C3CCCN3C(=O)C3CCOCC3)n2)c1 (centres undefined) | 6.183
CC(C)CC(CC(C)C)NC(=O)c1ccn(C)c(=O)c1 | -21.93
CCN(C)c1ccc(C(=O)NCCCc2ccccn2)cn1 | 2.308
CN(Cc1cc(-c2ccccc2)no1)C(=O)CNS(C)(=O)=O | 1.736
CCc1nsc(NC2CCCn3nc(COC)nc32)n1 (centres undefined) | 4.878
COc1ccc(C(=O)Nc2ccc3c(c2)C(=O)NC3)cc1Br | 17.01
Cc1ncsc1CCN(C)C1CCN(c2ncnc3[nH]cnc23)CC1 | 3.542
Cn1cnnc1C1CCCN(C(=O)NCCn2ccnc2)C1 (centres undefined) | 20.45
CN(C)c1ncc(-c2ccc(C(N)=O)cc2)c(C2CCNC2)n1 (centres undefined) | 17.92
CCc1c(C)sc2ncnc(N3CC[C@@H](N4CCOCC4)[C@H](O)C3)c12 | 16.67
O=C(CN1CCCCCC1)NCCSc1cnn[nH]1 | 13.87
CN1CCC/C1=N\S(=O)(=O)c1ccc(NC(=O)c2ccc(F)cc2)cc1 | 10.8
CC(C)CCNC(=O)C(c1cccc(F)c1)N(C)C (centres undefined) | 20.07
COC(=O)[C@H](C)NC(=O)c1nc(C2CC2)n(-c2ccccc2Cl)n1 | 12.94
CCc1ncc(C(=O)N(C)C(C)c2ccc3c(c2)OCCO3)cn1 (centres undefined) | 20
Cc1nc(CN2CCN(C(=O)C(C(C)C)n3cncn3)CC2)cs1 (centres undefined) | 11.72
N#CC1C(=O)Nc2c(cnn2C2CCCC2)C12CCCCC2 (centres undefined) | 5.801
CNC(=O)[C@H]1C[C@@H]2CN(S(=O)(=O)c3ccccc3)C[C@@H]2N1C(C)=O | 6.299
O=C(CCc1ncc(-c2ccc(F)cc2)o1)NCCN1CCOCC1 | 8.741
N#Cc1c(Cl)nsc1NCc1cccnc1OCC(F)(F)F | 13.77
O=S1(=O)COCCN1Cc1ccc(Cl)c(F)c1 | 11.96
CC(C)CN1CC(C(=O)NCCOc2ccc3c(c2)OCO3)CC1=O (centres undefined) | 12.01
CCNC(=O)C1CCCN(C(=O)Nc2ccc3c(c2)CCCN3C)C1 (centres undefined) | 10.21
COc1ccc(CN2C[C@H](OCC3CCOCC3)[C@H]3COC[C@H]32)cc1 | 17.5
O=C(c1ccc(=O)[nH]n1)N1CCCC1CCc1ccccc1 (centres undefined) | 13.46
CC(C)c1nc(CN2CCCCC2)cs1 | 2.083
CCc1nc(C2CCCN2CC(=O)Nc2cc(C)on2)no1 (centres undefined) | 12.25
CC(C)(C)CC(=O)NCC(=O)Nc1ccn(CCCn2ccnc2)n1 | 20.4
CC(C)c1ncc(CN2CCC(O)(c3ccccc3F)CC2)cn1 | 7.764
CCOCC1CN(Cc2ccccn2)Cc2nn(CC3CC3)cc21 (centres undefined) | 18.16
COCCN1CCN(c2ccc(C)nn2)Cc2cccnc21 | 11.96
CN1CCN(C(C)(C)CNC(=O)C2CCCN2S(C)(=O)=O)CC1 (centres undefined) | 4.082
Cc1ccc(NCCCNC(=O)NCC2CCS(=O)(=O)C2)nc1 (centres undefined) | 7.652
Cc1ccc([C@@H]2CN(S(=O)(=O)c3cccs3)C[C@H]2N(C)C)cc1 | 13.01
Cc1cc(C)n(CC(=O)N2CCC(Nc3cccnn3)CC2)n1 | 1.579
O=C(NCC(c1ccc(F)cc1)N1CCOCC1)Nc1cn[nH]c1 (centres undefined) | 14.92
COC(=O)c1ccc(N2CCN(CCN3CCOCC3)C(C)C2)cc1 (centres undefined) | 17.32
Cc1ccc(CNC(=O)N2CCN(C(C)c3cccnc3)CC2)cn1 (centres undefined) | 9.429
Cc1nc(CNC2CCc3nc(C(C)C)nn3C2)oc1C (centres undefined) | 6.129
COc1ccc(-c2noc(CN3CCN(c4cnccn4)CC3)n2)cc1 | 14.37
Cc1cc(C)n(CCNCc2cc(-c3ccccc3)c[nH]c2=O)n1 | 16.67
O=C(NCc1cncc2c1CCN(CC1CCOC1)C2)c1ccco1 (centres undefined) | 0
Cc1ccnc(NC(=O)CCc2cnn(C)c2C)c1 | 1.657
CC(NC(=O)NCCCN1CCCC1=O)c1nncn1C (centres undefined) | 19.55

Some entries from above, unchanged:

SMILES	inhibition
COC(=O)c1cccn1C1CCN(Cc2ccccc2)CC1	17.77
Cc1ccc(NCCCNC(=O)NCC2CCS(=O)(=O)C2)nc1 (centres undefined)	7.652
Cc1nc(CNC2CCc3nc(C(C)C)nn3C2)oc1C (centres undefined)	6.129
CNC(=O)[C@H]1C[C@@H]2CN(S(=O)(=O)c3ccccc3)C[C@@H]2N1C(C)=O	6.299

Data taken from ChEMBL document CHEMBL3988442, “University of Dundee, Small-Polar-MMV Screening Library” (2021).